Assay [1] addresses p27^Kip1 (endogenous) (human (endogenous in HeLa)) (UniProt P46527). Description: co-IP; endogenous proteins; lysate of cells synchronized at G0/G1 (50 mM Hepes-NaOH pH 7.5, 100 mM NaCl, 0.5% Nonidet P40, 2.5 mM EDTA, 10% glycerol); monoclonal anti-β1, anti-p27^Kip1 or anti-GFP (control) with protein G-plus-agarose at 4°C; Western blot. For orientation: Immunoblotting shows a protein as a band on a membrane.

Chains of the proteins cited; added tags and fusions are not shown. Residues count along the entry.
UniProt P46527: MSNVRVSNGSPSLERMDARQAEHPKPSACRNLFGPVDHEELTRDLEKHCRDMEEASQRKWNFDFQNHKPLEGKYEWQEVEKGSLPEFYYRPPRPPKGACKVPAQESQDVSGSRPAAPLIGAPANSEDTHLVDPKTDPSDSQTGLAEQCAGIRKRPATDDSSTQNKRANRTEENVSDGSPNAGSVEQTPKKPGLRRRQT
UniProt P28072, residues 35-239: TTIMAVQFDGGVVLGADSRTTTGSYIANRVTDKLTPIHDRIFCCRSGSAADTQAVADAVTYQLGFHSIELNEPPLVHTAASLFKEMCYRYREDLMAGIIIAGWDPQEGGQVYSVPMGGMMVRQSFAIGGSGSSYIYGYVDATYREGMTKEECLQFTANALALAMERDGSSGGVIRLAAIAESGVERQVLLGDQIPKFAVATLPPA
UniProt P25788: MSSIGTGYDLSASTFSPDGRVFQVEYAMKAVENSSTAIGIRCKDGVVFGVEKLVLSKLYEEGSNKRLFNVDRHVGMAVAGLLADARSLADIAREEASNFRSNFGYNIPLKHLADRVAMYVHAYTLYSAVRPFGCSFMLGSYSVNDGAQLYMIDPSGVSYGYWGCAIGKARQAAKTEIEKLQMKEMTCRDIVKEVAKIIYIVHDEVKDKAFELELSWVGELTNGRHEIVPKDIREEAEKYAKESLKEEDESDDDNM

The target of assay [2] is proteasomal β1 subunit (endogenous) (human (endogenous in HeLa)) (UniProt P28072). The assay is described as above.

These are yes or no findings as the source states them, for the method shown. Binding seen in cells or lysates may run through a third protein. Some results given as binding are weak or reduced against the parent protein; the word gives no strength.

Regarding “proteasomal β1 subunit (endogenous) (from UniProt P28072 35-239)”, the binding entry in assay [1] is given as “binds”.

Consider “p27^Kip1 (endogenous) (from UniProt P46527 1-198)”, for which the binding result in assay [2] was “binds”.

Turning to “proteasomal α7 subunit (endogenous) (from UniProt P25788 1-255)”, the binding entry in assay [2] is listed as “binds”.

The values above are taken from PMC3712487.
